Source: patent US20230095558A1, “IMMUNE CHECKPOINT TIM3-TARGETING BINDING PEPTIDE AND APPLICATION THEREOF” (Sparx Biotech (Jiangsu) Co., Ltd., priority 2020, published 2023)
These are yes or no findings as the source states them, for the method shown. Some binding calls cover weakened binding; strength is not graded here.

T1: recombinant human TIM3 expressed on 293T-TIM3 cells (human) (UniProt Q8TDQ0)
T1 sequence (looked up): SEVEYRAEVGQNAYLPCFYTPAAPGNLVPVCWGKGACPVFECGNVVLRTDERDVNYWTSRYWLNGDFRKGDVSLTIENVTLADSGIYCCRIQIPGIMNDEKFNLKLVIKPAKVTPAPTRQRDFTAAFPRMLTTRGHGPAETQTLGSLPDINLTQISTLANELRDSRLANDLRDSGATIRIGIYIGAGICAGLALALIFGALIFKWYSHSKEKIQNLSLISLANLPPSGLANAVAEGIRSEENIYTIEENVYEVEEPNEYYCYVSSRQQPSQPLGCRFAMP


target: T1, recombinant human TIM3 expressed on 293T-TIM3 cells (human); test: cell ELISA with phage, ratio of OD490 on 293T-TIM3 cells to OD490 on 293T cells

| binding | Binder |
| --- | --- |
| binds | GSWNTFRAQPTI [N40] |
| binds | SHDTRSPFTWGR [N24] |
| binds | LTPHKHHKHLHA [N17] |
| binds | SFAGVHQFRPAP [N32] |
| binds | ALWPSSSMSSTI [N51] |
| binds | GLIPLTTMHIGK [N36] |
| binds | HDAFPRPHLFRN [N129] |
| binds | ADFRVMADMSMY [N67] |
| binds | SHTTTEHAKDKI [N131] |
| binds | TFLNSVPTYSYW [N71] |

target: T1, recombinant human TIM3 expressed on 293T-TIM3 cells (human); test: flow cytometry with P26-FITC on 293T-TIM3 cells, 293T cells as negative control

| binding | Binder |
| --- | --- |
| binds | GLIPLTTMHIGK [P26-12-peptide (targeting TIM3)] |
